Taken from: PubChem BioAssay AID1259308 (NCATS, 2017)

Screen: 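Candidate targets for better recombinant protein yield in mammalian cells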 (primary screen)
System: human HEK293 embryonic kidney cells stably expressing firefly luciferase (HEK-CMV-Luc2-Hygro)
Knock-down reagent: single siRNA against human genes, 0.8 pmol siRNA per well
Duration: 72 h
Read-out: 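Luciferase light (ONE-Glo) measured on one replicate plate set and viability (CellTiter-Glo) on the other, scaled to a negative control siRNA, with robust z-scores and luciferase per cell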
Direction: total luciferase, z-score and total luciferase, % of control: higher = more reporter protein produced; luciferase per cell, z-score: higher = more reporter output per viable cell; viable cells, % of control: higher = more viable cells
Hit rule: 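An siRNA counts as active if its total luciferase robust z-score exceeds 3; genes with two or more such siRNAs out of three were retested with fresh siRNAs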
Meaning of the calls: active = raised luciferase; inactive = no rise
The deposit covers about 59,000 reagents; below is an unselected part. Over the whole deposit, about 1,510 (2.6%) got an active call. 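Calls use total luciferase alone and ignore viability, so some active siRNAs may act by altering cell number.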 Unmarked entries are inactive. The numbers tell different reagents against one gene apart.

| total luciferase, z-score | total luciferase, % of control | luciferase per cell, z-score | viable cells, % of control | target gene | siRNA no. |
| --- | --- | --- | --- | --- | --- |
| 0.379 | 89.4 | 0.242 | 93.7 | SLC6A17 | 1 |
| 0.102 | 83.9 | -0.0399 | 94.8 | SLC6A17 | 2 |
| 0.0695 | 83.3 | 0.0943 | 90.8 | SLC6A17 | 3 |
| -1.07 | 60.7 | -1.22 | 93.5 | MND1 | 1 |
| -0.0946 | 80 | 0.0256 | 88.8 | MND1 | 2 |
| -1.32 | 55.5 | -1.59 | 94.2 | MND1 | 3 |
| -0.753 | 66.9 | -0.626 | 88.2 | CRYL1 | 1 |
| 0.132 | 84.5 | -0.857 | 118 | CRYL1 | 2 |
| -0.764 | 66.7 | -0.862 | 93.5 | CRYL1 | 3 |
| -0.354 | 74.8 | -0.59 | 97.7 | TRUB2 | 1 |
| 1.04 | 103 | 0.941 | 89.5 | TRUB2 | 2 |
| 0.311 | 88.1 | -0.281 | 106 | TRUB2 | 3 |
| 1.47 | 111 | 1.64 | 80.7 | SEMA7A | 1 |
| 0.909 | 100 | 0.453 | 99.1 | SEMA7A | 2 |
| 0.755 | 96.9 | 0.55 | 93.7 | SEMA7A | 3 |
| 0.232 | 86.5 | 0.299 | 89.3 | GPR62 | 1 |
| -0.0177 | 81.5 | -0.349 | 99.9 | GPR62 | 2 |
| 0.162 | 85.1 | -0.502 | 109 | GPR62 | 3 |
| -0.398 | 74 | -0.686 | 99 | GNAI2 | 1 |
| -0.406 | 73.8 | 0.845 | 66 | GNAI2 | 2 |
| -0.956 | 62.9 | -1.52 | 105 | GNAI2 | 3 |
| -0.0121 | 81.6 | 0.226 | 86 | BIRC7 | 1 |
| -1.14 | 59.3 | -0.202 | 69.9 | BIRC7 | 2 |
| -2.38 | 34.6 | -2.29 | 70.7 | BIRC7 | 3 |
| 1.09 | 104 | 1.24 | 83.4 | WNT3 | 1 |
| -0.748 | 67 | -0.173 | 78.4 | WNT3 | 2 |
| -0.445 | 73 | -0.826 | 101 | WNT3 | 3 |
| -1.08 | 60.4 | 0.00942 | 67.3 | LCLAT1 | 1 |
| -0.127 | 79.4 | 0.378 | 80.3 | LCLAT1 | 2 |
| -1.63 | 49.5 | -1.1 | 73.8 | LCLAT1 | 3 |
| 0.00679 | 82 | -0.459 | 103 | BMP6 | 1 |
| -0.594 | 70.1 | -0.684 | 93.8 | BMP6 | 2 |
| 1.24 | 107 | 0.758 | 97.5 | BMP6 | 3 |
| -2.28 | 36.6 | -2.39 | 76.6 | MDFI | 1 |
| 0.0593 | 83.1 | -0.329 | 101 | MDFI | 2 |
| -1.54 | 51.2 | -1.06 | 75.8 | MDFI | 3 |
| 1.37 | 109 | 1.02 | 93.3 | PIF1 | 1 |
| 0.372 | 89.3 | -0.336 | 109 | PIF1 | 2 |
| -0.255 | 76.8 | -0.858 | 108 | PIF1 | 3 |
| -1.34 | 55.2 | -1.06 | 81.6 | TEX9 | 1 |
| -0.485 | 72.2 | 0.138 | 77.9 | TEX9 | 2 |
| 0.228 | 86.4 | 1.01 | 73.9 | TEX9 | 3 |
| 0.57 | 93.2 | 0.028 | 103 | TREML3P | 1 |
| 1.1 | 104 | 2.35 | 62.4 | TREML3P | 2 |
| 3.8 (active) | 157 | 1.89 | 107 | TREML3P | 3 |
| -0.74 | 67.2 | -0.378 | 82.9 | FHIP2A | 1 |
| -0.29 | 76.1 | -0.731 | 103 | FHIP2A | 2 |
| 0.414 | 90.1 | -0.589 | 118 | FHIP2A | 3 |
| -0.451 | 72.9 | -0.605 | 95.5 | SETD4 | 1 |
| 0.0509 | 82.9 | -0.312 | 101 | SETD4 | 2 |
| 1.65 | 115 | 0.868 | 102 | SETD4 | 3 |
| 1.42 | 110 | 0.808 | 99.5 | FERMT3 | 1 |
| -0.75 | 67 | -0.778 | 91.9 | FERMT3 | 2 |
| 1.04 | 103 | 1.41 | 79.1 | FERMT3 | 3 |
| 0.157 | 85 | 0.181 | 90.6 | KYNUP2 | 1 |
| -0.673 | 68.5 | -0.477 | 86.8 | KYNUP2 | 2 |
| 0.333 | 88.5 | -0.0651 | 101 | KYNUP2 | 3 |

Already shown: an excerpt of the list.
| total luciferase, z-score | total luciferase, % of control | luciferase per cell, z-score | viable cells, % of control | target gene | siRNA no. |
| --- | --- | --- | --- | --- | --- |
| 0.232 | 86.5 | 0.299 | 89.3 | GPR62 | 1 |
| -0.0177 | 81.5 | -0.349 | 99.9 | GPR62 | 2 |
| 0.162 | 85.1 | -0.502 | 109 | GPR62 | 3 |
